According to publication PMC9911754:
Results are given in words; binding and its absence hold for the method and conditions named. Binding seen in cells or lysates may run through a third protein. Some binding calls cover weakened binding; strength is not graded here.

The chains behind the UniProt entries cited, without tags or fusion partners.
UniProt Q9BV73: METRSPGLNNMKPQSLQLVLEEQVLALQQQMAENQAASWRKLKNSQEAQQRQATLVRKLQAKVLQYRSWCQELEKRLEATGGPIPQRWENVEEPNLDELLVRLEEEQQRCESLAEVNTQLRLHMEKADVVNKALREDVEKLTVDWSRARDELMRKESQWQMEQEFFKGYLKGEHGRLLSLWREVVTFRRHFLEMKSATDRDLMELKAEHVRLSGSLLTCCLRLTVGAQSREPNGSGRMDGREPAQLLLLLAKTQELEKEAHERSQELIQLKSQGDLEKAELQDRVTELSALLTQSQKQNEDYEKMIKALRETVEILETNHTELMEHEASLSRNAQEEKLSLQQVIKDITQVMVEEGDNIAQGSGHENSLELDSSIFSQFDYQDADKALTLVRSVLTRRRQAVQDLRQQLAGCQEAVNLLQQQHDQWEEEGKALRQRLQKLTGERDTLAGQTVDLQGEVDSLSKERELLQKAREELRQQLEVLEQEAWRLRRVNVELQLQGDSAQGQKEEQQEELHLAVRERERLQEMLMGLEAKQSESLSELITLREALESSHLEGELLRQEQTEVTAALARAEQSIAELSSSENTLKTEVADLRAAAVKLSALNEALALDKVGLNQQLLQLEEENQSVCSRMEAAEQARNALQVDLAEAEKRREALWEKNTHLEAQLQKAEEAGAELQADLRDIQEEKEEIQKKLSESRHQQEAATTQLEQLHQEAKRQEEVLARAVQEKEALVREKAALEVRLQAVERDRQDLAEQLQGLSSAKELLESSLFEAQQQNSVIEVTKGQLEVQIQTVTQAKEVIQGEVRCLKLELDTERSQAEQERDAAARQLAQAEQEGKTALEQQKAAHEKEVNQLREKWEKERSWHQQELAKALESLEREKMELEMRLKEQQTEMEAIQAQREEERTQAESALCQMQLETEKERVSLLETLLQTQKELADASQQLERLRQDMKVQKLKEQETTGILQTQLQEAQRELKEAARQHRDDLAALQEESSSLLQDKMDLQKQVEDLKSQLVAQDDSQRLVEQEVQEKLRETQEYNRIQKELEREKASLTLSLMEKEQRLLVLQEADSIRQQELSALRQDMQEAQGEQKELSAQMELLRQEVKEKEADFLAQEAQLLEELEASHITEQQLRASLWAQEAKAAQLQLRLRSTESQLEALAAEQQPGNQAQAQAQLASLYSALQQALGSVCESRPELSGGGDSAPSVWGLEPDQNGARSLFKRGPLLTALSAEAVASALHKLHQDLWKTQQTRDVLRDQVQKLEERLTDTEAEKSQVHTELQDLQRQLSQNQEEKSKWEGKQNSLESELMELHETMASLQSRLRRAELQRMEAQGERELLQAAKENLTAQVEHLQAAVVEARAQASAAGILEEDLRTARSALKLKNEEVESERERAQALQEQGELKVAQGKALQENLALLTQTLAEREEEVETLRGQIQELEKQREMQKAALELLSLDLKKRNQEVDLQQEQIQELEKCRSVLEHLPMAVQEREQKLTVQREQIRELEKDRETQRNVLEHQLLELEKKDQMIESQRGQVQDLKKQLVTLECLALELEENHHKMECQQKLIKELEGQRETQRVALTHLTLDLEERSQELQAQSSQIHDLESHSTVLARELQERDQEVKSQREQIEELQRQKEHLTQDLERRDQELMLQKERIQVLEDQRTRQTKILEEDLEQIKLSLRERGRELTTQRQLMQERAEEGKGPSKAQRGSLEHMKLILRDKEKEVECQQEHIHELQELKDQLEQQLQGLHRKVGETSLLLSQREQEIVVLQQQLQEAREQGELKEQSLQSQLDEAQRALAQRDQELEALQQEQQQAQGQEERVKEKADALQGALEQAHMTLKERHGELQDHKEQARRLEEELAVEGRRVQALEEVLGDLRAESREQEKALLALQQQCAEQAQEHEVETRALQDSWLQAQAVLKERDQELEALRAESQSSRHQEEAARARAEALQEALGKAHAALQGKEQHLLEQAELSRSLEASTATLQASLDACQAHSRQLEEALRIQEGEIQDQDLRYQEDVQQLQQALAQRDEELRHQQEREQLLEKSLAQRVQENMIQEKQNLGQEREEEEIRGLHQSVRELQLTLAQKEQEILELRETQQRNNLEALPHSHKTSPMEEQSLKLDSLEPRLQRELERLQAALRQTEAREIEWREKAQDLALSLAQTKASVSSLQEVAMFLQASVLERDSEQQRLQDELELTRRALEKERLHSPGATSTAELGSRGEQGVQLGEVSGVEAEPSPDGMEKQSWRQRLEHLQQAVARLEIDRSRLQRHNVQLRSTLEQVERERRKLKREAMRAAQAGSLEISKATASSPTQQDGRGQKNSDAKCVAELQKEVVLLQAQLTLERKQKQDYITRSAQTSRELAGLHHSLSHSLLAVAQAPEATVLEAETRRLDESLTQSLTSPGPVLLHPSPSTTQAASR

Molecular target: CEP250 (human (endogenous in HEK293T)) (UniProt Q9BV73)
Test: co-IP; HEK293T cells transfected with the indicated plasmids (PHF5A-Y36E or PHF5A-Y36F co-expressed); CEP250 or Nek2A immunoprecipitated, Nek2A or CEP250 detected by immunoblotting; lysates in BC100 buffer

binding: binds
B1: Nek2A (enzyme, UniProt P51955 1-445)
chain: MPSRAEDYEVLYTIGTGSYGRCQKIRRKSDGKILVWKELDYGSMTEAEKQMLVSEVNLLRELKHPNIVRYYDRIIDRTNTTLYIVMEYCEGGDLASVITKGTKERQYLDEEFVLRVMTQLTLALKECHRRSDGGHTVLHRDLKPANVFLDGKQNVKLGDFGLARILNHDTSFAKTFVGTPYYMSPEQMNRMSYNEKSDIWSLGCLLYELCALMPPFTAFSQKELAGKIREGKFRRIPYRYSDELNEIITRMLNLKDYHRPSVEEILENPLIADLVADEQRRNLERRGRQLGEPEKSQDSSPVLSELKLKEIQLQERERALKAREERLEQKEQELCVRERLAEDKLARAENLLKNYSLLKERKFLSLASNPELLNLPSSVIKKKVHFSGESKENIMRSENSESQLTSKSKCKDLKKRLHAAQLRAQALSDIEKNYQLKSRQILGMR
